Data as given in PubChem BioAssay AID1508597 (Cure First, 2020).
Test: 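Genes whose silencing sensitises or protects ovarian cancer cells against rucaparib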 (primary screen). System: human ovarian carcinoma lines grown from tumours: OCI-P5x (papillary serous) and OCI-C5x (clear cell). Reagent: siRNA pool against human genes, 1.25 pmol siRNA per well. Time to read-out: 72 h or 96 h, depending on the cell culture. Conditions: rucaparib 20 µM (about IC30) or vehicle, present until read-out. Rucaparib or vehicle: Vehicle. Cell line: OCI-P5x (serous). Detection: 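Luminescent ATP-based viability assay read 72 or 96 h after transfection, depending on culture, given as normalised percent viability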. Scale: viability, normalised: higher = more viable cells remaining. Active means: 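a well counts as a hit if its normalised viability is under 80 percent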. Meaning of the calls: active = viability under 80%; inactive = viability 80% or more.
Shown is a random part of the about 2,100 reagents, in one setting of the screen. 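Calls flag viability under 80% in either arm, not effects specific to rucaparib; the reference for percent is not stated.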 Reagent sequences are not shown. Not stated in the record: the 100% reference.

PFKM (phosphofructokinase, muscle) [SID405527546], technical replicate 1 gave viability, normalised (%) = 94.9; inactive. With PFKM (phosphofructokinase, muscle) [SID405527546], technical replicate 2, the values are viability, normalised (%) = 103; inactive. With PFKM (phosphofructokinase, muscle) [SID405527546], technical replicate 3 the deposit lists viability, normalised (%) = 105; inactive. CSNK1G1 (casein kinase 1 gamma 1) [SID405527550], technical replicate 1 showed viability, normalised (%) = 50.5; active. CSNK1G1 (casein kinase 1 gamma 1) [SID405527550], technical replicate 2 showed viability, normalised (%) = 48.7; active. For CSNK1G1 (casein kinase 1 gamma 1) [SID405527550], technical replicate 3 the deposit lists viability, normalised (%) = 50.3; active.

For GPX4 (glutathione peroxidase 4) [SID405526827], technical replicate 1 the deposit lists viability, normalised (%) = 53.7; active. For GPX4 (glutathione peroxidase 4) [SID405526827], technical replicate 2, the entry reads viability, normalised (%) = 63.7; active. With GPX4 (glutathione peroxidase 4) [SID405526827], technical replicate 3, the values are viability, normalised (%) = 62.3; active. For PDCD10 (programmed cell death 10) [SID405526359], technical replicate 1, the entry reads viability, normalised (%) = 89.2; inactive. For PDCD10 (programmed cell death 10) [SID405526359], technical replicate 2, the entry reads viability, normalised (%) = 92.3; inactive. With PDCD10 (programmed cell death 10) [SID405526359], technical replicate 3 the deposit lists viability, normalised (%) = 74.3; active.

For CRKL (CRK like proto-oncogene, adaptor protein) [SID405527428], technical replicate 1, the entry reads viability, normalised (%) = 86.6; inactive. CRKL (CRK like proto-oncogene, adaptor protein) [SID405527428], technical replicate 2 scored viability, normalised (%) = 75.1; active. For CRKL (CRK like proto-oncogene, adaptor protein) [SID405527428], technical replicate 3, the entry reads viability, normalised (%) = 79; active. S100A4 (S100 calcium binding protein A4) [SID405527267], technical replicate 1 showed viability, normalised (%) = 48.3; active. S100A4 (S100 calcium binding protein A4) [SID405527267], technical replicate 2 gave viability, normalised (%) = 51.9; active. For S100A4 (S100 calcium binding protein A4) [SID405527267], technical replicate 3 the deposit lists viability, normalised (%) = 58.4; active.

For TLE1 (TLE family member 1, transcriptional corepressor) [SID405526563], technical replicate 1, the values are viability, normalised (%) = 84.3; inactive. With TLE1 (TLE family member 1, transcriptional corepressor) [SID405526563], technical replicate 2 the deposit lists viability, normalised (%) = 74; active. TLE1 (TLE family member 1, transcriptional corepressor) [SID405526563], technical replicate 3 scored viability, normalised (%) = 79.5; active. With XRCC3 (X-ray repair cross complementing 3) [SID405528376], technical replicate 1, the entry reads viability, normalised (%) = 84.8; inactive. XRCC3 (X-ray repair cross complementing 3) [SID405528376], technical replicate 2 gave viability, normalised (%) = 105; inactive. With XRCC3 (X-ray repair cross complementing 3) [SID405528376], technical replicate 3, the entry reads viability, normalised (%) = 82.8; inactive.

With KDM5D (lysine demethylase 5D) [SID405526940], technical replicate 1 the deposit lists viability, normalised (%) = 67; active. KDM5D (lysine demethylase 5D) [SID405526940], technical replicate 2 showed viability, normalised (%) = 71.9; active. KDM5D (lysine demethylase 5D) [SID405526940], technical replicate 3 gave viability, normalised (%) = 56.5; active. For PEA15 (proliferation and apoptosis adaptor protein 15) [SID405527133], technical replicate 1 the deposit lists viability, normalised (%) = 62.8; active. PEA15 (proliferation and apoptosis adaptor protein 15) [SID405527133], technical replicate 2 scored viability, normalised (%) = 78; active. For PEA15 (proliferation and apoptosis adaptor protein 15) [SID405527133], technical replicate 3 the deposit lists viability, normalised (%) = 87.5; inactive.

For MACROD2 (mono-ADP ribosylhydrolase 2) [SID405526964], technical replicate 1, the values are viability, normalised (%) = 64.3; active. For MACROD2 (mono-ADP ribosylhydrolase 2) [SID405526964], technical replicate 2 the deposit lists viability, normalised (%) = 62.5; active. With MACROD2 (mono-ADP ribosylhydrolase 2) [SID405526964], technical replicate 3 the deposit lists viability, normalised (%) = 97.2; inactive.

Part of the list above in another layout.
gene,PubChem SID,technical replicate,"viability, normalised (%)",Outcome
KDM5D (lysine demethylase 5D),SID405526940,1,67,active
KDM5D (lysine demethylase 5D),SID405526940,2,71.9,active
KDM5D (lysine demethylase 5D),SID405526940,3,56.5,active
